Measurements as given in PubChem BioAssay AID1347076 (National Center for Advancing Translational Sciences (NCATS), 2019).
About 13,000 (3.2%) of roughly 400,000 compounds were called active. This list was built around the results that the source calls inconclusive (neither active nor inactive); the mix of calls is not that of the screen. Calls follow the shape of the dose curve; as a rule, active = well fitted cell-killing curve with a large enough effect; inconclusive = small, poorly fitted or top-dose-only effect, or effect the other way; inactive = flat fitted curve, though single readings scatter. Potencies beside an inconclusive call are fits to weak or partial responses and may not hold up.
% is scaled to controls: 0 for no effect and ±100 for the full control effect; potency is read from the fitted curve at half-maximal effect.

Test: qHTS assay for MDR1-selective chemotherapeutics: Primary screen using the drug-selected MDR subline cells KB-V1; also: nearly all actives have a fitted effect of over 60% in size
Conditions: KB-V1 MDR cells viability, CellTiter-Glo, 72 h; activity change, negative = cytotoxicity: at 46.1 µM (top of the series)
Method in brief: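 Cytotoxicity toward P-gp-expressing KB-V1 cells was determined as loss of CellTiter-Glo luminescence after 72 h at 37 degrees C. Compounds were tested in quantitative HTS format across a concentration range, with curves fitted to normalized data.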
For `Cc1ccc(N2CCN(Cc3nnc(-c4ccccc4F)o3)CC2)c(C)c1`, the Potency was “inactive”.
For `O=C(CSc1nc2[nH]c(=O)cc(O)c2s1)Nc1ccc(Cl)c(C(F)(F)F)c1`, the Potency was inconclusive: 29.1 µM [rising, single point].
With `COC(=O)c1ccc(Nc2cc(C)nc3ccccc23)cc1` the Potency was inconclusive: 18.4 µM [cytotoxic, partial curve, poor fit].
For `CCOc1ccc(NC(=O)CCc2c(C)nc3nc(-c4cc(OC)cc(OC)c4)nn3c2C)cc1`, the Potency was inconclusive: 29.1 µM [cytotoxic, single point].
With `COc1cccc(NC(=O)/C(C#N)=C/c2c(C)n(Cc3ccccc3)c3ccccc23)c1` the Potency was inconclusive: 16.4 µM [cytotoxic, partial curve].
With `COc1ccccc1C(=O)Nc1ccccc1C(=O)NC1CCCCC1` the Potency was inconclusive: 4.61 µM [cytotoxic, partial curve].
With `O=C(/C=C/c1cnc2ccccc2n1)NC1CCCCCC1` the Potency was inconclusive: 20.6 µM [cytotoxic, single point].
With `CC1CCCN(C(c2cccs2)c2nnnn2Cc2ccccc2)C1` (centres undefined) the Potency was inconclusive: 29.1 µM [cytotoxic, single point].
With `COc1cccc(N2CCN(C(=O)c3oc4ccccc4c3NC(=O)Cc3ccc(OC)c(OC)c3)CC2)c1` the Potency was “inactive”.
With `CN(CCCc1cnc[nH]1)C(=S)NCCCN(Cc1ccc(Cl)cc1)c1ccc(Br)cn1` the Potency was inconclusive: 23.1 µM [cytotoxic, single point].
For `CC1CCc2c(sc3nc(CN4CCOCC4)nc(Sc4ccccc4)c23)C1` (centres undefined), the Potency was active: 8.2 µM.
For `CN(C)CCCN(C(=O)c1cc(-c2cccs2)nc2ccccc12)c1nc2ccc(F)cc2s1`, the Potency was inconclusive: 29.1 µM [cytotoxic, single point].
In the case of `O=C(NN=C1CCCC1)c1ccccc1[N+](=O)[O-]`, the Potency was inconclusive: 0.651 µM [rising, full curve, poor fit].
In the case of `Fc1ccc(C(NCCc2ccc(Cl)cc2)c2nnc(-c3ccccc3Cl)o2)cc1` (centres undefined), the Potency was inconclusive: 20.6 µM [cytotoxic, single point].
In the case of `O=C(c1cccc(Br)c1)N1CCN(c2cnn(-c3ccccc3)c(=O)c2Cl)CC1`, the Potency was inconclusive: 0.231 µM [cytotoxic, full curve].
For `Cc1nn(Cc2ccccc2Cl)c2sc(C(=O)NC(C)(C)C)cc12`, the Potency was inconclusive: 23.1 µM [cytotoxic, single point].
With `O=C(Nc1ccc(Cl)c(C(F)(F)F)c1)c1nc2ccccc2nc1N1CCCCC1` the Potency was inconclusive: 29.1 µM [cytotoxic, single point].
In the case of `O=S(=O)(c1ccccc1)N(CC(O)CN1CCCC1)c1ccccc1` (centres undefined), the Potency was inconclusive: 32.6 µM [rising, single point].
For `O=C(NCc1ccco1)c1ccc(Cl)c(S(=O)(=O)N2CCOCC2)c1`, the Potency was inconclusive: 29.1 µM [cytotoxic, single point].
For `CC(NC(=O)c1cccc(S(=O)(=O)N2CCN(C)CC2)c1)c1ccc(Cl)cc1Cl` (centres undefined), the Potency was inconclusive: 8.2 µM [cytotoxic, partial curve].
With `Cc1ccc(Nc2nc(N)nc(CSc3nc(C)cc(C)n3)n2)cc1` the Potency was inconclusive: 18.4 µM [cytotoxic, single point].
For `COc1ccc(CN(C)C(=O)c2cccc(S(=O)(=O)N3CCCc4ccccc43)c2)c(OC)c1OC`, the Potency was inconclusive: 32.6 µM [cytotoxic, partial curve, poor fit].
In the case of `CCc1cccc(N2C(=O)CS(=O)(=O)C23C(=O)N(Cc2ccccc2)c2ccc(C)cc23)c1` (centres undefined), the activity change, negative = cytotoxicity was inconclusive: 13.1%.
For `CC(Oc1ccc(Cl)cc1Cl)C(=O)NC(=S)N1CCc2ccccc21` (centres undefined), the Potency was inconclusive: 20.6 µM [cytotoxic, single point].
With `Cc1ccc(Nc2nc3ccccc3nc2-n2nc(C)cc2C)c(Cl)c1` the Potency was inconclusive: 18.4 µM [rising, single point].
For `O=C(COc1ccccc1Cl)Nc1cccc(S(=O)(=O)NC2=NCCCCC2)c1`, the Potency was inconclusive: 18.4 µM [cytotoxic, partial curve].
For `Cc1cccc(NCC(=O)N/N=C/c2ccc(Br)cc2)c1`, the Potency was inconclusive: 23.1 µM [cytotoxic, single point].
With `CN(C)c1cc(-c2ccc(Cl)c(Cl)c2)oc(=O)c1Cl` the Potency was “inactive”.
In the case of `C=CCn1c(CCn2c3ccccc3c3ccccc32)n[nH]c1=S`, the Potency was inconclusive: 18.4 µM [cytotoxic, partial curve].
For `CCN(C(=O)COC(=O)/C=C/c1ccc2c(c1)OCO2)c1c(N)n(Cc2ccccc2)c(=O)[nH]c1=O`, the activity change, negative = cytotoxicity was inconclusive: -10.5%.
For `O=C1NC[C@@H](CCCCN2C[C@H](Cc3ccc(O)cc3)N(CC3CCCCC3)C(=O)C2=O)N(CCC2CCCCC2)C1=O`, the Potency was inconclusive: 9.2 µM [rising, partial curve].
In the case of `O=C(CSc1nnc(COc2ccc(F)cc2)o1)N1c2ccccc2CCc2ccccc21`, the Potency was active: 6.51 µM.
With `CCOC(=O)C1=C(C)n2c(s/c(=C/c3cccc([N+](=O)[O-])c3)c2=O)=NC1c1ccc(O)c(OC)c1` (centres undefined) the Potency was active: 18.4 µM.
For `CCN1C[C@@H]2[C@@H]3C(=O)N(C)C(=O)[C@@H]3[C@](Cc3ccccc3)(C1=O)N2C(=O)c1ccc(Br)cc1`, the Potency was inconclusive: 3.66 µM [rising, full curve].
In the case of `O=C(COc1ccccc1/C=C\c1[nH]c(=O)[nH]c(=O)c1[N+](=O)[O-])Nc1ccccc1`, the Potency was inconclusive: 16.4 µM [rising, single point].
For `O=C(NC1CCCC1)c1ccccc1OCc1ccccc1`, the Potency was inconclusive: 7.31 µM [cytotoxic, partial curve].
With `CCCCN1C(=O)C(O)(CC(=O)c2ccccn2)c2ccccc21` (centres undefined) the Potency was inconclusive: 29.1 µM [cytotoxic, single point].
With `CN(c1ccccc1)S(=O)(=O)c1cccc(C(=O)N2CCN(c3ccccn3)CC2)c1` the Potency was inconclusive: 13 µM [cytotoxic, partial curve, poor fit].
For `COC(=O)c1ccc2c(=O)n(CCc3ccc(S(N)(=O)=O)cc3)c(SCC(=O)C(C)(C)C)nc2c1`, the Potency was “inactive”.
